The values that follow come from PMC12040169 (PLOS Biology, 2025).

The list shows a part of the results.

In the assay the test system is T1, CTL2-GFP (C. trachomatis L2/434/Bu, GFP-expressing).
T1 construct: L2/434/Bu, GFP-expressing
More on the design: species or system HeLa; Intracellular C. trachomatis growth in HeLa cells, bulk GFP fluorescence relative to DMSO. To be noted: bulk GFP, single well; 28.5 h, 10 µM; inhibitor.
For `Cc1cccc(C(=O)Nc2ccc(C(=O)NNC(=O)C(C)(C)C)cc2)c1` [CBK269073], the “% of control remaining” value worked out at 114.935%.

On to `CC1CN(Cc2nc3c(c(=O)n(C)c(=O)n3C)n2CCN2CCOCC2)CC(C)O1` (stereo not shown) [CBK269340], for which the “% of control remaining” value was 101.552%.

As to `NC(=O)c1cccnc1N1CCN(CCCN(c2ccc(F)cc2)c2ccc(F)cc2)CC1` [CBK025341C], the “% of control remaining” value is 106.988%.

In the case of `COC(=O)CN1C(=O)CC2(C1=O)C(=O)N(Cc1ccccc1)c1ccc(F)cc12` (stereo not shown) [CBK075143], the “% of control remaining” value stood at 110.415%.

For the molecule `C#C[C@H]1C[N@@]2CC[C@H]1C[C@@H]2CNC(=O)Nc1cccc(C#N)c1` [CBK288754], the “% of control remaining” value is recorded as 142.158%.

Regarding `Cc1c(C(=O)O)c2cc(O)ccc2n1-c1ccccc1` [CBK115329], the “% of control remaining” value was determined as 85.5281%.

`Nc1ccc(-c2ccc(OC(F)(F)F)cc2)c2ccccc12` [CBK084327]: the “% of control remaining” value came out at 99.6511%.

On to `O=c1cc2oc3cc(O)c(O)cc3c(-c3cccc(OCc4ccc([N+](=O)[O-])cc4)c3)c-2cc1O` [CBK265388], for which the “% of control remaining” value was 88.3327%.

For the molecule `CCCn1c(SCC(=O)N2CCc3ccccc32)nc(O)cc1=O` [CBK305843], the “% of control remaining” value was 102.112%.

Take `COc1ccc(-c2cc(C3CCCCCN3)no2)cc1` (stereo not shown) [CBK285399]: the “% of control remaining” value was determined as 125.202%.

`Cc1noc(C)c1S(=O)(=O)Nc1csc(C(F)(F)F)c1-c1ccccc1` [CBK001237]: the “% of control remaining” value was 96.4072%.

As to `O=[N+]([O-])c1cccc(C(Nc2ccccn2)n2cnc3ccccc32)c1` (stereo not shown) [CBK261145], the “% of control remaining” value amounted to 99.1338%.

With `Cc1cc(OC(C)C(=O)Nc2ccccc2C(=O)N2CCCC2)ccc1Cl` (stereo not shown) [CBK269710], the “% of control remaining” value was determined as 175.205%.

In the case of `Cc1ccc(NS(=O)(=O)c2cc(C(=O)Nc3ccc(S(=O)(=O)N4CCCC4)cc3)ccc2C)cc1` [CBK268784], the “% of control remaining” value came out at 62.7076%.

For `NC(=O)C1CCN(C(=O)c2cc(O)nc3ccccc23)CC1` [CBK296719], the “% of control remaining” value is listed as 127.433%.

For the molecule `c1cnc(-c2ccsc2)c(OC2CCCCC2)n1` [CBK106764], the “% of control remaining” value came to 100%.

For the molecule `O=C(O)c1cccc2c1C(=O)C(CC1CCCO1)N2` (stereo not shown) [CBK287140], the “% of control remaining” value is listed as 153.536%.

As for `CSc1nnc(-c2ccc(Br)cc2)o1` [CBK026502], the “% of control remaining” value turned out to be 142.702%.

On to `O=C1N2CCSC2=NC1(Nc1nccs1)C(F)(F)F` (stereo not shown) [CBK267484], for which the “% of control remaining” value is 143.884%.

As to `CS(=O)(=O)N1CC2(CCN(CCO)CC2)c2ccccc21` [CBK126677], the “% of control remaining” value turned out to be 110.779%.

In the case of `CCc1c(C)cc(C(=O)N(C)C(CC)c2ccccn2)c(=O)n1C` (stereo not shown) [CBK307078], the “% of control remaining” value turned out to be 180.764%.

On to `CC(C)[C@H](CO)n1c(=O)[nH]c2ncc(-c3cccc4ncccc34)nc21` [CBK064955], for which the “% of control remaining” value was found to be 225.186%.
